Measured values reported in US20170121379A1.
No constants are given. Whether binding was seen depends on the method and setting. Some results given as binding are weak or reduced against the parent protein; the word gives no strength.

Experiments:
human CD20 (human) [1] = target: T1, human CD20 (human) (UniProt P11836); experiment: flow cytometry on human PBMC, biotinylated fusion protein, FITC-streptavidin surface staining
T1 sequence (looked up): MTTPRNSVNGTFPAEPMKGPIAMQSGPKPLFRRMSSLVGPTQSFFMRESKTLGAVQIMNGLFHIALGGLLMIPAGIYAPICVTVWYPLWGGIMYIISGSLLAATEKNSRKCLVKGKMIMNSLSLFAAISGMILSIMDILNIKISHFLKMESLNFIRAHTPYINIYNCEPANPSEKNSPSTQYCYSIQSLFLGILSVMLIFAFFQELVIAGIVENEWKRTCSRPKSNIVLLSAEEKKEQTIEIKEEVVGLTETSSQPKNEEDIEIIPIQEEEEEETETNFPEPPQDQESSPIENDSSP

human CD20 (human) [2] = target: T1, human CD20 (human); experiment: confocal imaging of cells treated 60 min at 37 C, streptavidin staining
human CD20 (human) [3] = target: T1, human CD20 (human); experiment: flow cytometry on Raji cells (5x10^5 cells, 1 ug fusion protein, 1 h 37 C), detection with APC anti-human IgG
human CD20 (human) [4] = target: T1, human CD20 (human); experiment: flow cytometry on Raji cells, detection with APC anti-human IgG

- binding (human CD20 (human) [1]): binds
- binding (human CD20 (human) [2]): binds
- binding (human CD20 (human) [3]): binds
- binding (human CD20 (human) [4]): binds
B1: BAIThCD20-FVIII2191-2210 (Fc fusion, not shown: a dimerising Fc or GST)
chain: MAQVQLVQSGAELVKPGASVKMSCKASGYTFTSYNMHWVKQTPGQGLEWIGAIYPGNGDTSYNQKFKGKATLTADKSSSTAYMQLSSLTSEDSAVYYCARAQLRPNYWYFDVWGAGTTVTVSGGGGSGGGGSGGGGSDIVLSQSPAILSASPGEKVTMTCRASSSVSYMHWYQQKPGSSPKPWIYATSNLASGVPARFSGSGSGTSYSLTISRVEAEDAATYYCQQWISNPPTFGAGTKLELKTASSYFTNMFATWSPSKARL
